The results in this text go back to PubChem BioAssay AID2685 (National Center for Advancing Translational Sciences (NCATS), 2010).

The experiment is described as follows: qHTS Assay for Lipid Storage Modulators in Drosophila S3 Cells.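 On cell number change: cells counted by Cell Tracker Red CMTPX staining in the red channel.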 The note with it: BODIPY lipid droplet fluorescence, 18-24 h; for cell number change: measured here: cell count max response, cells fed with added oleic acid. In a few lines: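 Drosophila S3 cells got compounds at several concentrations plus oleic acid (400 uM solution). Laser-scanning cytometry with 488 nm excitation read lipid droplets at 500-530 nm and cells at 575-640 nm. Percent activity was relative to 20 uM Triacsin C.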

Setting [1] is: measured here: lipid fluorescence (Fed channel) AC50, cells fed with added oleic acid.
[2] abbreviates: measured here: cell number channel AC50, cells fed with added oleic acid.

This is one part of the list. Further columns of the screen follow, without active or inactive calls. The list favours compounds with an active or inconclusive main result. Words in brackets tell the shape of the fitted curve; partial curves, single points and poor fits give uncertain potencies.

Regarding `Cc1nn(CC(=O)N2CCCc3ccccc32)c(C)c1[N+](=O)[O-]`, the cell number change stood at 5.33%. Further, the AC50 (as a rule, the midpoint of the concentration-response curve, whichever way the signal moves) under setting [1] is 23.1 µM [rising, single point].

Take `O=[N+]([O-])c1ccc(COc2ccc(CNc3ccccc3)cc2)cc1`: the cell number change was -35.9%. The AC50 under setting [2] was 32.6 µM [falling, partial curve, poor fit]. Further, the AC50 under setting [1] is 0.731 µM [falling, single point].

`O=C(CSc1nnc(-c2ccccc2)n1-c1ccccc1)NCc1ccco1`: the cell number change came out at 24.8%.

On to `COc1ccc(S(=O)(=O)N2CCC(C(=O)NCc3ccncc3)CC2)cc1OC`, for which the cell number change was 6.84%. Besides, under setting [1], the AC50 is 23.1 µM [rising, single point].

Consider `Clc1ccc2nc(N3CCCCC3)sc2c1`, for which the cell number change is -23.5%. Moreover, the half-maximal activity concentration (AC50) under setting [1] is 18.4 µM [falling, single point].

For the compound `O=S(=O)(NCCc1ccccn1)c1ccc(OC(F)(F)F)cc1`, the cell number change was determined as 51.9%. Further, under setting [2], the AC50 is 10.3 µM [rising, partial curve, poor fit]. In addition, the AC50 under setting [1] is 3.26 µM [rising, partial curve, poor fit].

On to `Cc1ccccc1-c1nc2cc(N)ccc2o1`, for which the cell number change was -11.2%. For the same compound, the AC50 under setting [1] was 0.92 µM [rising, full curve, poor fit].

For `c1ccc(C2=NNC(=NC3CC3)SC2)cc1`, the cell number change was determined as 57.8%. Further, the AC50 under setting [2] was 29.1 µM [rising, single point].

Regarding `Cc1ccc(C)c(NC(=S)NNC(=O)c2csc(C)c2)c1`, the AC50 under setting [2] was 2.91 µM [rising, single point].

On to `CCn1nc(C(=O)Nc2nc(-c3ccccn3)cs2)c2ccccc2c1=O`, for which the cell number change worked out at 17.7%. Moreover, the AC50 under setting [1] is 0.82 µM [rising, full curve, poor fit].

In the case of `Cc1cc(C(C)(C)C)oc1C(=O)OCC(=O)NC1CCCCC1`, the cell number change worked out at 30.2%. In addition, the AC50 under setting [2] is 0.326 µM [rising, full curve]. The AC50 under setting [1] was 2.06 µM [rising, full curve].

Take `COC(=O)C1=C(C)N(c2ccc(Cl)c(Cl)c2)C(=O)C1`: the cell number change is -22.5%. In addition, under setting [1], the AC50 was 18.4 µM [falling, partial curve].

With `CC1(C)CC(=O)C2=C(C1)NC(=O)CC2c1ccc(F)cc1` (stereo not given), the cell number change came to 6.11%. Under setting [1], the concentration at half-maximal activity (AC50) is 0.82 µM [falling, full curve].

Regarding `CS(=O)(=O)c1ccc2nc(NC(=O)c3ccc(Cl)cc3)sc2c1`, the cell number change was -6.67%. Also, the AC50 under setting [1] is 20.6 µM [rising, single point].

Regarding `CC(C)(C)n1nnnc1C(c1ccccn1)N1CCN(C(c2ccccc2)c2ccccc2)CC1` (stereo not given), the cell number change worked out at 7.11%. The AC50 under setting [1] was 1.3 µM [rising, partial curve].

On to `COC(=O)c1ccc(NC2CC(=O)N(c3ccccc3C)C2=O)cc1` (stereo not given), for which the cell number change was found to be 13.4%.

For `COc1ccc(-c2noc(N3CCC(C(=O)NCc4ccccc4Cl)CC3)n2)cc1`, the cell number change is 32.6%. Under setting [2], the AC50 was 0.184 µM [rising, partial curve, poor fit]. Besides, the AC50 under setting [1] was 18.4 µM [falling, single point].
